Consider one molecule from publication PMC12000498.

Protein sequences, listed by entry. Tags and fused reporters are not part of them.
UniProt Q9Z2G0: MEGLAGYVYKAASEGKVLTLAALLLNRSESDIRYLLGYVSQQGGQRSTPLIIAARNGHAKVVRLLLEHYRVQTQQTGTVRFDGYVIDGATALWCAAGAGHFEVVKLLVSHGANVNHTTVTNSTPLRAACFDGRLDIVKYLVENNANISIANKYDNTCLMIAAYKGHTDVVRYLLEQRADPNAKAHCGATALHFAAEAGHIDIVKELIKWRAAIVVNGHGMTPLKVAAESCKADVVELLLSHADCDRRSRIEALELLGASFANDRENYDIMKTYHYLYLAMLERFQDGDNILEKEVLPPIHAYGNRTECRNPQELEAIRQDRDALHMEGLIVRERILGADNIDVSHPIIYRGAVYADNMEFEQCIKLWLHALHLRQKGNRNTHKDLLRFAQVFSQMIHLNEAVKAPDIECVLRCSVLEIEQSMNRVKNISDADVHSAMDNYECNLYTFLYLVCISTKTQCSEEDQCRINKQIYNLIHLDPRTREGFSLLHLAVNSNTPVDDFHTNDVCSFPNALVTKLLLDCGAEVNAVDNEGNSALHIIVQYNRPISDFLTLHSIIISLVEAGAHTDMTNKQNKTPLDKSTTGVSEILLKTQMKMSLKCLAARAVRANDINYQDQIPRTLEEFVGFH

No constants are given. Whether binding was seen depends on the method and setting. In cells and extracts the contact can be indirect. A yes stands for co-enrichment or nearness to the bait. Other partners may have been found.

The test has as its target Flag-tagged Fem1b (UniProt Q9Z2G0). The test can be described thus: affinity purification with mass spectrometry; Flag-Fem1b stably expressed in skeletal cells; lysate in IP buffer immunoprecipitated with anti-Flag affinity gel; eluate resolved by SDS-PAGE, trypsin digest, LC-MS.

B1: Pdik1l (skeletal cells) (protein, UniProt Q8QZR7 1-341)
chain: MVSSQPKYDLIREVGRGSYGVVYEAVIRKTSARVAVKKIRCHAPENVELALREFWALSSIKSQHPNVIHLEECILQKDGMVQKMSHGSNSSLYLQLVETSLKGEIAFDPRSAYYLWFVMDFCDGGDMNEYLLSRKPNRKTNTSFMLQLSSALAFLHKNQIIHRDLKPDNILISQSRMDTSDLEPTLKVADFGLSKVCSASGQNPEEPVSVNKCFLSTACGTDFYMAPEVWEGHYTAKADIFALGIIIWAMLERITFIDTETKKELLGSYVKQGTEIVPVGEALLENPKMELLIPVKKKSMNGRMKQLIKEMLAANPQDRPDAFELELRLVQIAFKDSSWET
As for B1, the binding entry is “binds”.
